Experimental findings from article doi:10.1101/2020.03.13.990168 are described below.

These are yes or no findings as the source states them, for the method shown. In cells and extracts the contact can be indirect. A yes stands for co-enrichment or nearness to the bait. Other partners may have been found.

The test concerns the target HflX (GTPase HflX of M. bovis BCG) (M. bovis BCG (endogenous in M. bovis BCG)). Kind of test: affinity purification with mass spectrometry.

B1: ribosomal protein S6 of the 30S ribosomal subunit (protein, UniProt A1KEM1 1-96)
chain: MRPYEIMVILDPTLDERTVAPSLETFLNVVRKDGGKVEKVDIWGKRRLAYEIAKHAEGIYVVIDVKAAPATVSELDRQLSLNESVLRTKVMRTDKH
As to B1, the binding result is reported as “binds”.

B2: ribosomal protein S17 of the 30S ribosomal subunit (protein, UniProt O06051 1-135)
chain: MAEAKTGAKAAPRVAKAAKAAPKKAAPNDAEAIGAANAANVKGPKHTPRTPKPRGRRKTRIGYVVSDKMQKTIVVELEDRMRHPLYGKIIRTTKKVKAHDEDSVAGIGDRVSLMETRPLSATKRWRLVEILEKAK
For the molecule B2, the binding result is on record as “binds”.

B3: ribosomal protein L30 of the 50S ribosomal subunit (protein, UniProt A1KGK3 1-65)
chain: MSQLKITQVRSTIGARWKQRESLRTLGLRRIRHSVIREDNAATRGLIAVVRHLVEVEPAQTGGKT
As to B3, the binding result is on record as “binds”.
